PubChem BioAssay AID1259405 – NCATS | 2018
This is one part, drawn at random, of about 50,000 reagents tested. About 4,000 of all reagents (8%) count as active. 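Mouse siRNA library applied to hamster cells; one well for each siRNA.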 Unmarked entries are inactive. The numbers tell different reagents against one gene apart.

Assay: 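Knock-downs that lift recombinant protein yield in hamster ovary cells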 (primary screen)
Cells: Chinese hamster CHO-K1 ovary cells with stable secreted eGFP expression
Reagents: single siRNA against mouse genes, 0.8 pmol siRNA per well (2 µl of 400 nM stock)
Time to read-out: 3 days
Detection: 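Per-well intracellular GFP measured by laser scanning cytometry, plus viability from ATP luminescence, each relative to plate median of non-targeting control wells, in %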
Reading the numbers: GFP, % of control: higher = more GFP per well, higher productivity; viability (ATP), % of control: higher = more viable cells (more ATP)
Call rule: 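Called active when intracellular GFP, relative to negative control, is at or above 120%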

Srpx2 (sushi-repeat-containing protein, X-linked 2) #1
- GFP, % of control: 57.7
- viability (ATP), % of control: 43.9

Srpx2 (sushi-repeat-containing protein, X-linked 2) #2
- GFP, % of control: 105
- viability (ATP), % of control: 75.6

Larp6 (La ribonucleoprotein 6, translational regulator) #1
- GFP, % of control: 126 (active)
- viability (ATP), % of control: 83.8

Larp6 (La ribonucleoprotein 6, translational regulator) #2
- GFP, % of control: 52.7
- viability (ATP), % of control: 48.5

Larp6 (La ribonucleoprotein 6, translational regulator) #3
- GFP, % of control: 67.9
- viability (ATP), % of control: 90.3

C1qtnf2 (C1q and tumor necrosis factor related protein 2) #1
- GFP, % of control: 40.7
- viability (ATP), % of control: 47.6

C1qtnf2 (C1q and tumor necrosis factor related protein 2) #2
- GFP, % of control: 86.9
- viability (ATP), % of control: 97.7

C1qtnf2 (C1q and tumor necrosis factor related protein 2) #3
- GFP, % of control: 65.9
- viability (ATP), % of control: 61.4

Sgcz (sarcoglycan zeta) #1
- GFP, % of control: 70.9
- viability (ATP), % of control: 88.6

Sgcz (sarcoglycan zeta) #2
- GFP, % of control: 76
- viability (ATP), % of control: 73.3

Sgcz (sarcoglycan zeta) #3
- GFP, % of control: 65.8
- viability (ATP), % of control: 69.5

Timmdc1 #1
- GFP, % of control: 73.2
- viability (ATP), % of control: 73.9

Timmdc1 #2
- GFP, % of control: 61.7
- viability (ATP), % of control: 66.6

Timmdc1 #3
- GFP, % of control: 74.1
- viability (ATP), % of control: 92.3

Next part; the last 2 above are carried over.
Timmdc1 #2
- GFP, % of control: 61.7
- viability (ATP), % of control: 66.6

Timmdc1 #3
- GFP, % of control: 74.1
- viability (ATP), % of control: 92.3

Or52d1 (olfactory receptor family 52 subfamily D member 1) #1
- GFP, % of control: 105
- viability (ATP), % of control: 78.4

Or52d1 (olfactory receptor family 52 subfamily D member 1) #2
- GFP, % of control: 196 (active)
- viability (ATP), % of control: 66.4

Or52d1 (olfactory receptor family 52 subfamily D member 1) #3
- GFP, % of control: 55
- viability (ATP), % of control: 59.6

Tmem165 (transmembrane protein 165) #1
- GFP, % of control: 105
- viability (ATP), % of control: 40.4

Tmem165 (transmembrane protein 165) #2
- GFP, % of control: 84.4
- viability (ATP), % of control: 62

Tmem165 (transmembrane protein 165) #3
- GFP, % of control: 55.2
- viability (ATP), % of control: 47.6

Tasor2 (transcription activation suppressor family member 2) #1
- GFP, % of control: 39.6
- viability (ATP), % of control: 66

Tasor2 (transcription activation suppressor family member 2) #2
- GFP, % of control: 89.1
- viability (ATP), % of control: 102

Tasor2 (transcription activation suppressor family member 2) #3
- GFP, % of control: 92.3
- viability (ATP), % of control: 136

Tnfrsf23 (tumor necrosis factor receptor superfamily, member 23) #1
- GFP, % of control: 82.4
- viability (ATP), % of control: 53.6

Tnfrsf23 (tumor necrosis factor receptor superfamily, member 23) #2
- GFP, % of control: 113
- viability (ATP), % of control: 96

Tnfrsf23 (tumor necrosis factor receptor superfamily, member 23) #3
- GFP, % of control: 20.3
- viability (ATP), % of control: 42.3

Ddt (D-dopachrome tautomerase) #1
- GFP, % of control: 42.6
- viability (ATP), % of control: 64.1

Ddt (D-dopachrome tautomerase) #2
- GFP, % of control: 56.4
- viability (ATP), % of control: 66.5

Ddt (D-dopachrome tautomerase) #3
- GFP, % of control: 78.6
- viability (ATP), % of control: 73.8
